Measurements reported in paper PMC6286129, “CryoEM structures of open dimers of gyrase A in complex with DNA illuminate mechanism of strand passage” (eLife, 2018).
No constants are given. Whether binding was seen depends on the method and setting. Some binding calls cover weakened binding; strength is not graded here.

Chains of the proteins cited; added tags and fusions are not shown.
UniProt P0A4L9: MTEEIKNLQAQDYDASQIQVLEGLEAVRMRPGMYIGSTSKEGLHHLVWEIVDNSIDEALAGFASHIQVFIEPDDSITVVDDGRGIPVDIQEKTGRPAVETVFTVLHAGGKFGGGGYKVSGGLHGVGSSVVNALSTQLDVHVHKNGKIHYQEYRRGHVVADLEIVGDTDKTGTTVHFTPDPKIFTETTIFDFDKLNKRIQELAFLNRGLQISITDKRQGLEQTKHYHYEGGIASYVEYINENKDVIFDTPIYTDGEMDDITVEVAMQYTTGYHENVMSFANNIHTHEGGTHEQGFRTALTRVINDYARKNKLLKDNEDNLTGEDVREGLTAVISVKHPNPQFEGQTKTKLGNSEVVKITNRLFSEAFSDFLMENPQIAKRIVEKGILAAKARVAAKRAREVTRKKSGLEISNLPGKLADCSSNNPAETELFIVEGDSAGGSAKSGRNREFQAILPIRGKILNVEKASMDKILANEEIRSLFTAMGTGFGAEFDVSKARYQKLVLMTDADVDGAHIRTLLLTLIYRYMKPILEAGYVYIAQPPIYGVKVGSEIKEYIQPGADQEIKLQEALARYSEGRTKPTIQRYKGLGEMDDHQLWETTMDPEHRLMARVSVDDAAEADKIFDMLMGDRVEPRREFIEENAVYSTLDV

T1: Streptococcus pneumoniae gyrase A subunit with truncated C-terminal domain (GyrA-ΔCTD, residues 1–487) (Streptococcus pneumoniae) (UniProt P72524)
T1 sequence: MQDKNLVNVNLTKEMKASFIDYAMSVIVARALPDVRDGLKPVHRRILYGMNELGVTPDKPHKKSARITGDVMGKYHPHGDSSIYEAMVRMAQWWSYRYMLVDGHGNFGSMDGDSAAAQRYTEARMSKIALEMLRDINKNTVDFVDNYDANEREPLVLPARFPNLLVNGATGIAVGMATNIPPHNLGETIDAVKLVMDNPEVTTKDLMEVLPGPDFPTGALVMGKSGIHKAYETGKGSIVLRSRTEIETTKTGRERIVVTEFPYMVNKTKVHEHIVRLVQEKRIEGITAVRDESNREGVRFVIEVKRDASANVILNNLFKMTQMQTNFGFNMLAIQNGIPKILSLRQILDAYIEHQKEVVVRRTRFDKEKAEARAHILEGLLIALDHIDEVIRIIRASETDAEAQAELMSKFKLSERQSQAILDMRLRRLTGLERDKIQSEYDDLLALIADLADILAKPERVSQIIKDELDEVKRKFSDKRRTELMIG

B1: Streptococcus pneumoniae gyrase A subunit with truncated C-terminal domain (GyrA-ΔCTD, residues 1–487) (domain or fragment, UniProt P72524 1-487, looked up)
chain: T1 sequence
notes: DNA gyrase subunit A, Streptococcus pneumoniae, gene cloned from the ATCC genome 700669DQ; residues 1-487 (C-terminal domain removed); The vector pMCSG7 adds 24 amino acids at the N-terminus, with a six amino acid His-tag and a TEV cleavage site; It forms open dimers that assemble around a 44 bp DNA into oligomers of four dimers (Dihedral complex) or six dimers (Tetrahedral complex); also called …

Assays:
[1] = molecular target: T1, Streptococcus pneumoniae gyrase A subunit with truncated C-terminal domain (GyrA-ΔCTD, residues 1–487) (Streptococcus pneumoniae); assay: negative stain EM; Tetrahedral complex formed from GyrA-ΔCTD, GyrB, 44 bp DNA, ciprofloxacin and novobiocin, purified by GraFix; 3D reconstruction with tetrahedral symmetry; both purified
[2] = molecular target: T1, Streptococcus pneumoniae gyrase A subunit with truncated C-terminal domain (GyrA-ΔCTD, residues 1–487) (Streptococcus pneumoniae); assay: negative stain EM; Dihedral complex formed from GyrA-ΔCTD and 44 bp DNA, with or without ciprofloxacin, GraFix gradient with or without glutaraldehyde; 2D classification and 3D reconstruction; both purified

Molecule | binding [1] | binding [2]
Streptococcus pneumoniae gyrase B subunit (from UniProt P0A4L9 1-648) | no binding | –
B1 | binds | binds
